From patent US20150211005A1, “MIRNA MODULATORS OF THERMOGENESIS” (APTAMIR THERAPEUTICS, INC., priority 2012, published 2015)
For at least one compound, name, drawing or mass did not settle the structure.

Assays:
[1] = system: human subcutaneous pre-adipocytes; experiment: Differentiation of human pre-adipocytes into adipocytes, Oil Red O lipid staining; format: cell-based
[2] = system: human subcutaneous adipocytes; experiment: Human adipocytes in culture for thirty days, Oil Red O lipid staining; format: cell-based; details: 30 days in culture; 100 nM rosiglitazone throughout; 25 nM hsa-miR-30b mimic
UCP2 = experiment: RNA-Seq mRNA expression during pre-adipocyte differentiation: UCP2; format: cell-based, human; details: pre-adipocytes; rosiglitazone 100 nM; miRNA analogs 25 nM
[3] = system: human subcutaneous adipocytes; experiment: Phenotypic changes of mature adipocytes cultured two weeks, bright field microscopy; format: cell-based; details: in reference to the control condition, day 28
Description: Human subcutaneous adipocytes were plated in 6-well plates at a density of 391,000 cells per well as described above. Using Dharmafect 4, these adipocytes were transfected at Day 14 with:
1. […] A negative control (mock transfection) 3.
At day 17, the cells were switched to maintenance medium, which was then changed every two-three days until day 28 when bright field microscopy pictures of the cells were taken.

human mature adipocytes = experiment: Amount of lipids in mature adipocytes, Nile Red fluorescence; format: cell-based; details: Day 30
UCP1 = experiment: RNA-Seq mRNA expression during pre-adipocyte differentiation: UCP1; format: cell-based, human; details: pre-adipocytes; rosiglitazone 100 nM; miRNA analogs 25 nM
Description: In order to assess the effect of miRNA analogs on human pre-adipocytes differentiation into mature adipocytes, human subcutaneous pre-adipocytes (SuperLot 0048 from 8 female donors, ZenBio, NC) were plated on Day 0 into 96-well plates and allowed to attach overnight in preadipocyte medium (DMEM/Ham's F-12 (1:1, v/v), HEPES buffer, Fetal bovine serum and Antibiotics). […] All treatments were in triplicate. Post transfection, the negative control was maintenance medium only and the positive control was maintenance medium with 100 nM of the PPARG agonist rosiglitazone. After 2 days, medium was removed and replaced with fresh maintenance medium. The maintenance medium then changed every two days until the end of the treatment period (Day 15). At the end of the treatment (total of 15 days in culture) cells were processed for Phenotyping and Genotyping Screening.
Profiling of mRNA changes occurring during the differentiation of human pre-adipocyte into mature adipocyte induced by rosiglitazone or miRNA analogs was performed by RNA-Seq technology. […]
Changes in mRNA expression of UCP1, 2 and 3 were also measured in the presence of rosiglitazone or miRNA analogs, as shown below in Table 18.

CN(CCOc1ccc(CC2SC(=O)NC2=O)cc1)c1ccccn1 (centres unmarked) [Rosiglitazone]
differentiation into lipid-loaded mature adipocytes (Oil Red O) ([1]; 100 nM rosiglitazone throughout the experiment (positive control), 15 days in culture): most of the cells became lipid-loaded mature adipocytes | differentiation into lipid-loaded mature adipocytes (Oil Red O) ([1]; differentiation medium including 100 nM Rosiglitazone for 2 days followed by maintenance medium for 12 days): some differentiation into lipid-loaded mature adipocytes | Oil Red O staining intensity and lipid droplet size [2]: the intensity of the red staining seems reduced and the lipid droplets appear smaller | UCP2 expression (in words) (UCP2): dramatic increase | cell density and browning appearance (bright field, FIG. 22) [3]: increase in cell density and “browning” appearance | Nile Red fluorescence (amount of lipids) (human mature adipocytes; exposed to rosiglitazone for two days): the fluorescence dropped significantly | Nile Red fluorescence (amount of lipids) (human mature adipocytes; rosiglitazone from Day 15 to Day 30): further reduced | expression of UCP1 (in words) (UCP1): significantly increased
